Assay results published in the supplement of paper PMC12067093, “Discovery and optimisation of a covalent ligand for TRIM25 and its application to targeted protein ubiquitination” (Chemical Science, 2025).
The list shows a part of the results.

Compound: CC1Cc2ccccc2N1C(=O)C1CCCN(C1)C(=O)CCl (mixture of isomers) [TRIM25 ligand 11 (diastereomer mixture)]
Assay: probe-labelled cysteine peptide fold change vs DMSO (competition) (log2 fold change); higher = less target engagement (more negative = stronger competition)
Conditions: THP-1, incubation time: 4 h
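Further: competitive chemoproteomic profiling in live THP-1 cells with an iodoacetamide desthiobiotin (IA-DTB) probe, comparing probe-labelled peptide intensities in compound-treated cells against DMSO-treated controls.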

Target	probe-labelled cysteine peptide fold change (10 µM)	probe-labelled cysteine peptide fold change (50 µM)
ZFAND1_Q8TCF1_10_AELDIGQHCQVEHCR (UniProt Q8TCF1)	-0.0243	0.207
ZCCHC3_Q9NUD5_356_CGEEGHLSPYCR (UniProt Q9NUD5)	0.259	0.0669
ZBTB44_Q8NCP5_272_MADYVTCESTK (UniProt Q8NCP5)	-0.0378	-0.103
XRCC3_O43542_310_LREEEAALGCPAR (UniProt O43542)	0.0756	-0.0559
XRCC5_P13010_157_KCDISLQFFLPFSLGKEDGSGDRGDGPFR (UniProt P13010)	-0.432	-0.174
XRCC5_P13010_296_ETVYCLNDDDETEVLKEDIIQGFR (UniProt P13010)	-0.169	-0.0628
ZDHHC6_Q9H6R6_295_EGCHQYSLTIEQLK (UniProt Q9H6R6)	0.124	-0.0875
XPNPEP3_Q9NQH7_503_EMNDIEQICSQAS (UniProt Q9NQH7)	0.000246	-0.0369
XPO7_Q9UIA9_66_GSSSYSQLLAATCLTK (UniProt Q9UIA9)	0.0137	0.129
YME1L1_Q96TA2_433_ANAPCVIFIDELDSVGGK (UniProt Q96TA2)	0.021	0.104
XPO1_O14980_498_NLNTLCWAIGSISGAMHEEDEKR (UniProt O14980)	0.0331	-0.0738
ZBTB11_O95625_737_YLCSVCGK (UniProt O95625)	-0.0498	0.228
YARS_P54577_501_ISEECIAQWK (UniProt P54577)	0.0329	-0.0947
XPO1_O14980_528_DLLGLCEQKR (UniProt O14980)	-0.0047	-0.00928
YTHDF2_Q9Y5A9_433_YNIWCSTEHGNK (UniProt Q9Y5A9)	0.0356	-0.0273
ZC3H13_Q5T200_42_LGPSTGSTAETQCR (UniProt Q5T200)	-0.11	-0.144
ZBTB7A_O95365_34_TQGLLCDVVILVEGR (UniProt O95365)	0.149	-0.0545
YWHAH_Q04917_97_ELETVCNDVLSLLDK (UniProt Q04917)	-0.1	-0.178
ZFAND1_Q8TCF1_33_DFLPFVCDDCSGIFCLEHR (UniProt Q8TCF1)	-0.0351	0.198
ZCCHC8_Q6NZY4_607_SEAGHASSPDSEVTSLCQK (UniProt Q6NZY4)	0.197	-0.304
XPOT_O43592_522_FFTVEPQHIPCVLMAFLDHR (UniProt O43592)	0.161	-0.0107
ZC3HAV1L_Q96H79_169_ILLLQNDPCLLPEVCLLYNK (UniProt Q96H79)	0.302	0.324

Target	probe-labelled cysteine peptide fold change (10 µM)	probe-labelled cysteine peptide fold change (50 µM)
XRCC3_O43542_193_FGSQIFIEHVADVDTLLECVNK (UniProt O43542)	-0.09	-0.159
ZC3H7B_Q9UGR2_617_QFQEHFQFDVCR (UniProt Q9UGR2)	0.176	0.249
ZC3H14_Q6PJT7_607_YWPACK (UniProt Q6PJT7)	-0.0482	0.0469
YWHAH_Q04917_112_NCNDFQYESK (UniProt Q04917)	-0.0341	0.1
ZC3H11A_O75152_636_CAAQTLEK (UniProt O75152)	-0.086	-0.217
XRN2_Q9H0D6_296_KGKHDELADSLPCAEGEFIFLR (UniProt Q9H0D6)	0.0231	0.0473
XPO6_Q96QU8_723_AQVLVCR (UniProt Q96QU8)	-0.0282	0.134
XPO1_O14980_1070_QMSVPGIFNPHEIPEEMCD (UniProt O14980)	-0.174	-0.397
YY1AP1_Q9H869_689_AHMNVDIACAVADGENAFQGLEPK (UniProt Q9H869)	0.1	0.221
XPO1_O14980_34_LDINLLDNVVNCLYHGEGAQQR (UniProt O14980)	0.0713	0.0305
YWHAB_P31946_191_ACSLAK (UniProt P31946)	-0.111	0.00871
ZC3HC1_Q86WB0_406_LCSSSSSDTSSR (UniProt Q86WB0)	-0.0222	-0.106
XRN1_Q8IZH2_1104_PLEQQHGVIPDRDAEFCLFDR (UniProt Q8IZH2)	-0.142	0.418
ZC3HAV1_Q7Z2W4_518_VDDHDSEEICLDHLCK (UniProt Q7Z2W4)	0.0623	-0.202
ZBED4_O75132_582_VVCLHCGR (UniProt O75132)	-0.126	-0.0917
ZC3HAV1_Q7Z2W4_831_NCPYDAK (UniProt Q7Z2W4)	0.0735	0.175
XPNPEP1_Q9NQW7_48_NSEYVTEPIQAYIIPSGDAHQSEYIAPCDCRR (UniProt Q9NQW7)	0.208	-0.287
XRCC5_P13010_296_ETVYCLNDDDETEVLK (UniProt P13010)	0.12	0.087
ZC3HAV1L_Q96H79_15_VLCAHGGR (UniProt Q96H79)	0.293	0.102
ZCCHC3_Q9NUD5_385_GHAFAQCPK (UniProt Q9NUD5)	-0.0776	-0.0532
ZCCHC10_Q8TBK6_58_CLEFGHWTYECTGK (UniProt Q8TBK6)	0.0113	0.188
XRCC5_P13010_157_CDISLQFFLPFSLGKEDGSGDRGDGPFR (UniProt P13010)	-0.43	-0.0205

Single records, from the list above.
YWHAH_Q04917_97_ELETVCNDVLSLLDK (UniProt Q04917) reads probe-labelled cysteine peptide fold change (10 µM) = -0.1; probe-labelled cysteine peptide fold change (50 µM) = -0.178
YWHAB_P31946_191_ACSLAK (UniProt P31946) reads probe-labelled cysteine peptide fold change (10 µM) = -0.111; probe-labelled cysteine peptide fold change (50 µM) = 0.00871

The list goes on.

Target	probe-labelled cysteine peptide fold change (10 µM)	probe-labelled cysteine peptide fold change (50 µM)
YY1_P25490_385_IHTGDRPYVCPFDGCNKK (UniProt P25490)	-0.226	-0.103
XRN2_Q9H0D6_29_ECNGVK (UniProt Q9H0D6)	-0.0394	-0.0726
ZC3H11A_O75152_209_QGECLNFGIK (UniProt O75152)	0.0341	-0.0162
ZC3H7B_Q9UGR2_700_FVCGQCWR (UniProt Q9UGR2)	0.0801	0.0759
YWHAG_P61981_194_LGLALNYSVFYYEIQNAPEQACHLAK (UniProt P61981)	0.0779	0.178
ZC3HAV1_Q7Z2W4_721_TSSVSLTATFRPQEDFCFLSSK (UniProt Q7Z2W4)	-0.066	-0.0616
ZC3H7A_Q8IWR0_775_QMPLQFDLCNHIASGKK (UniProt Q8IWR0)	-0.187	-0.181
XPO5_Q9HAV4_1131_DSLDQFDCK (UniProt Q9HAV4)	-0.113	-0.283
ZC3H7B_Q9UGR2_909_CAHGQEELNEWLDRR (UniProt Q9UGR2)	-0.164	-0.0944
XPO4_Q9C0E2_723_ANLVIQCENWWNLAK (UniProt Q9C0E2)	0.0686	-0.105
XPOT_O43592_56_FFCFQVLEHQVK (UniProt O43592)	0.294	0.235
ZFAND1_Q8TCF1_28+33_DFLPFVCDDCSGIFCLEHR (UniProt Q8TCF1)	0.0867	-0.272
ZFAND1_Q8TCF1_64_LKTDQHTSYPCSFK (UniProt Q8TCF1)	-0.0624	-0.388
ZCCHC3_Q9NUD5_385_RGHAFAQCPK (UniProt Q9NUD5)	-0.0589	0.0741
ZC3H7B_Q9UGR2_576_DSPSVCSNLAAK (UniProt Q9UGR2)	0.0652	0.0882
ZC3H15_Q8WU90_105_SVVCAFFK (UniProt Q8WU90)	-0.0728	-0.107
YEATS2_Q9ULM3_565_QEDSLFASMPPLCPIGSHPK (UniProt Q9ULM3)	-0.00711	-0.175
XPO5_Q9HAV4_605_HACSSIIK (UniProt Q9HAV4)	-0.06	-0.0203
XPO6_Q96QU8_886_EQLAESILHEGSTGCR (UniProt Q96QU8)	0.18	0.152
ZDHHC21_Q8IVQ6_112_CGHCVR (UniProt Q8IVQ6)	-0.0132	0.303
XPO1_O14980_99_NQCEGIK (UniProt O14980)	0.0271	0.0716
ZFAND1_Q8TCF1_79_ELVAVICPYCEK (UniProt Q8TCF1)	-0.0161	0.168

Target	probe-labelled cysteine peptide fold change (10 µM)	probe-labelled cysteine peptide fold change (50 µM)
YJU2_Q9BW85_275_AKADPDCSNGQPQAAPTPGAPQNR (UniProt Q9BW85)	-0.0979	-0.295
ZC3H11A_O75152_80_LNCAFHHNR (UniProt O75152)	0.00255	0.082
YTHDC2_Q9H6S0_777_MPLQELCLHTK (UniProt Q9H6S0)	-0.0952	-0.0734
ZDHHC13_Q8IUH4_51_EALPLIEDSSNCDIVK (UniProt Q8IUH4)	0.118	-0.32
XRCC1_P18887_132_IVCSQPYSK (UniProt P18887)	-0.107	0.0317
ZC3H14_Q6PJT7_613_NGDECAYHHPISPCK (UniProt Q6PJT7)	-0.0243	-0.0561
ZCCHC8_Q6NZY4_607_KSEAGHASSPDSEVTSLCQK (UniProt Q6NZY4)	0.0469	-0.328
XRCC5_P13010_157_KCDISLQFFLPFSLGK (UniProt P13010)	-0.0322	0.0523
ZC3H12D_A2A288_64_GSCGVPDSAQR (UniProt A2A288)	-0.0296	-0.256
ZC3HAV1_Q7Z2W4_15_ILCAHGGR (UniProt Q7Z2W4)	0.0881	0.0508
YWHAZ_P63104_94_DICNDVLSLLEK (UniProt P63104)	0.126	0.114
YWHAE_P62258_97_LICCDILDVLDK (UniProt P62258)	-0.154	0.0438
XPO7_Q9UIA9_15_ADHVQSLAQLENLCK (UniProt Q9UIA9)	0.174	-0.0401
XRN1_Q8IZH2_657_ALYFCGFPTLK (UniProt Q8IZH2)	0.0122	0.07
ZADH2_Q8N4Q0_55_DCPVPLPGDGDLLVR (UniProt Q8N4Q0)	0.0399	-0.177
XPO7_Q9UIA9_331_ILENPQSLSDPNNYHEFCR (UniProt Q9UIA9)	0.0454	0.164
YBEY_P58557_41_FDLGIICVDNK (UniProt P58557)	-0.23	-0.0948
ZDHHC21_Q8IVQ6_109_CGHCVR (UniProt Q8IVQ6)	-0.0184	0.123
ZC3H13_Q5T200_1592_ASLLSNLGPCCK (UniProt Q5T200)	0.0171	-0.128
XPNPEP1_Q9NQW7_502_SALWDSGLDYLHGTGHGVGSFLNVHEGPCGISYK (UniProt Q9NQW7)	0.18	-0.182
